# Laboratory results taken from the supplement of paper PMC4604168 (melanoma cell lines).
# This is one part of the list. Single values are uncertain, as repeats are few or missing.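 Imaging used 1,536-well plates; nuclei positive for cleaved PARP by antibody were divided by total DNA-stained nuclei to yield the apoptosis fraction. Doses for screening kept most cells viable, and cell lines differ markedly in resting and induced cleaved-PARP levels.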
# System: A2058
# Assay: cleaved PARP positive nuclei fraction relative to DMSO control; melanoma cells; higher = more apoptosis
# Details: library dose: low library concentration; 72 h
row,Structure (SMILES),cleaved PARP positive nuclei fraction
1,"Cc1cc(SCc2sc(-c3ccc(C(F)(F)F)c(F)c3)nc2C)ccc1OCC(=O)O + Cn1cc(/C=C2\C(=O)Nc3cccnc32)c2ccccc21 [GW441756] (first compound 2 µM, partner dose 0.4 µM)",25.6%
2,"CCN(CC)CCCCNc1ncc2cc(-c3cc(OC)cc(OC)c3)c(NC(=O)NC(C)(C)C)nc2n1 + O=C(Oc1ccc([N+](=O)[O-])cc1)N1CCC(C(O)(c2ccc3c(c2)OCO3)c2ccc3c(c2)OCO3)CC1 [JZL184] (first compound 0.1 µM, partner dose 1 µM)",65.8%
3,"O=C(Nc1ccccc1)c1cc([N+](=O)[O-])ccc1Cl + O=C(Oc1ccc([N+](=O)[O-])cc1)N1CCC(C(O)(c2ccc3c(c2)OCO3)c2ccc3c(c2)OCO3)CC1 [JZL184] (first compound 2 µM, partner dose 1 µM)",122%
4,"Oc1nc(-c2ccc(C(F)(F)F)cc2)nc2c1CSCC2 + O=C(Oc1ccc([N+](=O)[O-])cc1)N1CCC(C(O)(c2ccc3c(c2)OCO3)c2ccc3c(c2)OCO3)CC1 [JZL184] (first compound 2 µM, partner dose 1 µM)",172%
5,"C[As](C)SC[C@H](NC(=O)CC[C@H](N)C(=O)O)C(=O)NCC(=O)O [Darinaparsin] + O=c1cc(-c2cccc3c2Sc2ccccc2S3)oc(N2CCOCC2)c1 [KU55933] (first compound 0.4 µM, partner dose 1 µM)",61%
6,"C[As](C)SC[C@H](NC(=O)CC[C@H](N)C(=O)O)C(=O)NCC(=O)O [Darinaparsin] + O=C(O)C(=O)Nc1sc2c(c1C(=O)O)CCNC2 [TCS401] (first compound 0.4 µM, partner dose 1.66667 µM)",133%
